# Screen size: about 320,000 compounds; about 22,000 (6.9%) were called active. Inconclusive results, whose numbers are uncertain, are shown with a selection of clear calls. Calls follow the shape of the dose curve; as a rule, active = well fitted inhibition curve with a large enough effect; inconclusive = small, poorly fitted or top-dose-only effect, or another doubt; inactive = no such curve, though single readings can be large or run the other way. Potencies of inconclusive entries are doubtful fits and often do not repeat.
# Experiment: Primary qHTS for delayed death inhibitors of the malarial parasite plastid, 96 hour incubation
# Details: P. falciparum luciferase reporter growth; series mostly up to 28.7 µM; activity change, negative = inhibition: at the top concentration
# Procedure, shortened: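 96 h incubation, 37 C, 5% CO2, of luciferase-reporter P. falciparum-infected RBCs (2% hematocrit, 0.05% parasitemia final) with test compounds; endpoint luminescence.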
# % is scaled to controls: 0 for no effect and ±100 for the full control effect; potency is read from the fitted curve at half-maximal effect.
SMILES,Potency,"activity change, negative = inhibition"
CCNC(=S)NC(=NCc1cccnc1)Nc1nc(C)cc(C)n1,"inconclusive: 3.7 µM [inhibitor, single point]",
COc1ccc(OC)c(C(=O)CSc2nc3c(c(=O)n(C)c(=O)n3C)n2C(C)C)c1,active: 14.7 µM,
CC(=O)C1=C(c2ccccc2)NC(=S)NC1c1ccc(O)c(O)c1 (centres undefined),active: 13.1 µM,
C=CCn1c(N)c(-c2nc3ccccc3n2C)sc1=S,"inconclusive: 10.4 µM [inhibitor, single point]",
COc1ccc(Nc2nnc(SC(C(=O)Nc3cc(C)ccc3C)c3ccccc3)s2)cc1 (centres undefined),"inconclusive: 6.57 µM [inhibitor, partial curve, poor fit]",
CC(/C=N/NC(=O)c1cc(C(C)(C)C)[nH]n1)=C\c1ccccc1,"inconclusive: 13.1 µM [inhibitor, partial curve]",
CCOC(=O)C1=C(COC(=O)c2cc(OC)c(OC)cc2[N+](=O)[O-])NC(=O)NC1C (centres undefined),,inactive: -2.23%
Cc1ccc2oc(=O)c3cnn(CC(=O)NC4CCCCC4C)c3c2c1 (centres undefined),"inconclusive: 18.5 µM [inhibitor, single point]",
Nc1ccc(Br)cc1C(=O)O,"inconclusive: 18.5 µM [inhibitor, single point]",
CCCCCCN(C(=O)CCCCCN1C(=O)NC(c2ccc(-c3ccccc3)cc2)C(C(=O)OCc2ccccc2)=C1C)C(C(=O)NCCCC)c1cccc(C(=O)OC)c1 (centres undefined),active: 1.65 µM,
COc1ccc(N2CCN(c3ccc(N)cc3C#N)CC2)cc1,,inactive: -26.5%
N#C/C=C/C(=C\Nc1ccc(Cl)cc1)S(=O)(=O)c1ccccc1,,inactive: -19.6%
CCOC(=O)c1sc(C)c2c(=O)n(CC(=O)c3ccc(Br)cc3)nnc12,,inactive: 35.8%
O=C(OC(C(=O)NC1CCCCC1)c1ccc(C(F)(F)F)cc1)c1ccco1 (centres undefined),"inconclusive: 18.5 µM [inhibitor, single point]",
CCCCOc1ccc(/C=c2\sc3ncnn3c2=O)cc1,active: 1.47 µM,
CCOCCCNC(=S)NC1CC2CCC(C1)N2Cc1ccccc1 (centres undefined),"inconclusive: 6.57 µM [inhibitor, partial curve]",
O=C(Nc1ncc2c(n1)CC(c1ccccc1)CC2=O)c1ccco1 (centres undefined),"inconclusive: 9.28 µM [inhibitor, single point]",
COc1ccc(Cl)cc1NC(=S)N1CCN(C(=O)c2ccco2)CC1,"inconclusive: 9.28 µM [inhibitor, single point]",
CN(C)CCN(C)Cc1c2ccccc2c(CN(C)CCN(C)C)c2ccccc12,active: 1.65 µM,
C/C(=N\NC(=O)C1CC1)c1ccc(Cl)c(Cl)c1,active: 4.15 µM,
CC(Sc1ccc(S(=O)(=O)N2CCN(C)CC2)cn1)C(=O)NC1(C#N)CCCCC1 (centres undefined),,inactive: -4.51%
CC(=O)c1cccc(NC(=O)CCC(=O)Oc2ccc(C)cc2)c1,,inactive: 28.3%
Cc1cc(NC(=O)CSc2cn(CC(=O)N(C(C)C)C(C)C)c3ccccc23)no1,"inconclusive: 14.7 µM [inhibitor, single point]",
O=C(Cn1c(=O)oc2cc(S(=O)(=O)N3CCCCC3)ccc21)N1CCCCC1,"inconclusive: 11.7 µM [inhibitor, single point]",
CCCCn1nnnc1SCC(=O)Nc1ccc2c(c1)OCCO2,"inconclusive: 4.15 µM [inhibitor, single point]",

SMILES,Potency,"activity change, negative = inhibition"
COc1ccc(CCNS(=O)(=O)c2cn(C)c(=O)n(C)c2=O)cc1,"inconclusive: 0.928 µM [inhibitor, partial curve, poor fit]",
CCOc1cccc2sc(N(CCCN(C)C)C(=O)c3ccc(C(=O)c4ccccc4)cc3)nc12,active: 10.4 µM,
Cc1ccc(SC[C@H](c2ccccc2)N2CCN(CCc3ccccc3)CCC2=O)cc1,"inconclusive: 13.1 µM [inhibitor, partial curve, poor fit]",
O=C(c1cccc(C(F)(F)F)c1)c1c[nH]c(C(=O)NCCCN2CCOCC2)c1,"inconclusive: 16.5 µM [inhibitor, partial curve, poor fit]",
Cc1ccc(NC(=O)COC(=O)c2cc(=O)c3ccccc3o2)cc1F,,inactive: 31.2%
Cc1ccccc1CN(C)CC(=O)Nc1ccccc1-c1ccccc1,active: 9.28 µM,
O=C(c1ccco1)N1CCN(C(c2cccs2)c2sc3ncnn3c2O)CC1 (centres undefined),"inconclusive: 18.5 µM [inhibitor, partial curve, poor fit]",
O=C(N/N=C/c1ccc([N+](=O)[O-])s1)c1ccccc1Br,active: 1.65 µM,
Cc1nc2ccccc2c2oc(C(=O)NCCCN3CC(C)CC(C)C3)cc12 (centres undefined),"inconclusive: 0.262 µM [inhibitor, full curve]",
CC1Cc2nc(SCC(=O)Nc3ccc4c(c3)OCCO4)n(C)c(=O)c2S1 (centres undefined),"inconclusive: 13.1 µM [inhibitor, single point]",
COc1ccc(Cl)cc1NS(=O)(=O)c1ccc2c(c1)NC(=O)CCS2,active: 7.38 µM,
O=C(NCCCc1ccccc1)c1ccc([N+](=O)[O-])cc1Cl,,inactive: 173%
COc1ccccc1NC(=O)NC1CCCCCCC1,active: 11.7 µM,
CCc1oc2ccccc2c1C(=O)CCN1CCCCC1,,inactive: 65.3%
Nc1cc(Cl)c2nonc2c1[N+](=O)[O-],,inactive: 10.4%
Cc1ncc(CO)c(/C=N/NC(=O)c2ccc(O)cc2)c1O,"inconclusive: 10.4 µM [inhibitor, single point]",
Cc1cccc(NC(=S)N(Cc2cccs2)Cc2cc3cc(C)ccc3[nH]c2=O)c1,"inconclusive: 4.65 µM [inhibitor, partial curve, poor fit]",
COC(=O)c1cc(Cc2ccc(N)c(C(=O)OC)c2)ccc1N,,inactive: 72.9%
O=[N+]([O-])c1ccc(NC2CCCC2)c2ccncc12,,inactive: -13%
O=C(OCc1nnc(-c2ccc(Br)cc2)o1)c1ccco1,"inconclusive: 10.4 µM [inhibitor, single point]",
CCCCN(C(=O)C1CCC1)c1c(N)n(Cc2ccccc2)c(=O)[nH]c1=O,,inactive: -5.05%
CCCCc1ccc(-c2ccc(Br)cc2)nc1,"inconclusive: 18.5 µM [inhibitor, single point]",
Cc1ccc(C(=O)NCC2CCCO2)cc1S(=O)(=O)N1CCCCC1 (centres undefined),"inconclusive: 18.5 µM [inhibitor, single point]",
CC(=O)N1c2ccccc2C2CCCC[C@H]21 (some centres undefined),,inactive: 6.73%
CCN(CC)C(=O)c1ccccc1NC(=O)c1ccccc1SC,,inactive: 22.7%

# Entries above with fluorine:
SMILES,Potency,"activity change, negative = inhibition"
O=C(OC(C(=O)NC1CCCCC1)c1ccc(C(F)(F)F)cc1)c1ccco1 (centres undefined),"inconclusive: 18.5 µM [inhibitor, single point]",
O=C(c1cccc(C(F)(F)F)c1)c1c[nH]c(C(=O)NCCCN2CCOCC2)c1,"inconclusive: 16.5 µM [inhibitor, partial curve, poor fit]",
Cc1ccc(NC(=O)COC(=O)c2cc(=O)c3ccccc3o2)cc1F,,inactive: 31.2%

# (more compounds)

SMILES,Potency,"activity change, negative = inhibition"
O=C(Nc1ccc(N2CCCC2)c(Cl)c1)c1cccs1,"inconclusive: 4.15 µM [inhibitor, single point]",
Cc1ccc(OCCNC(=O)C2CC(=O)N(Cc3ccccc3)C2)cc1 (centres undefined),"inconclusive: 8.28 µM [inhibitor, single point]",
COCCN1Cc2cccc(C(=O)Nc3cccc(-c4nc5ccccc5[nH]4)c3)c2C1=O,"inconclusive: 1.17 µM [inhibitor, full curve, poor fit]",
CC(=O)Nc1cc(S(=O)(=O)Nc2ccccc2C)c(C)cc1C,,inactive: -1.69%
CCc1ccc(C(=O)CN2C(=O)NC(C)(c3ccc(C)cc3)C2=O)cc1 (centres undefined),"inconclusive: 18.5 µM [inhibitor, single point]",
COc1cccc(CSc2ccc(S(=O)(=O)N3CCOCC3)cc2C(=O)NCC2CCCO2)c1OC (centres undefined),,inactive: -4.39%
Cc1cc(-c2ccccc2)n(-c2ccc(C(N)=O)cc2)n1,"inconclusive: 9.28 µM [inhibitor, single point]",
O=C(Nc1cccc(S(=O)(=O)NC2=NCCC2)c1)c1cnc(Cl)c(Cl)c1,"inconclusive: 18.5 µM [inhibitor, single point]",
CCC1CCCCN1S(=O)(=O)c1ccc(NC(=O)CSc2ncccc2C(=O)O)cc1 (centres undefined),,inactive: 30%
CC(Sc1nnc(-c2cccnc2)n1C)C(=O)N1CCOCC1 (centres undefined),,inactive: 10.3%
CC(C)c1ccc(N(C(=O)c2csnn2)C(C(=O)NC2CCCC2)c2cccnc2)cc1 (centres undefined),"inconclusive: 8.28 µM [inhibitor, single point]",
O=C1C2C3C=CC(C3)C2C(=O)N1CCCO (centres undefined),"inconclusive: 9.28 µM [inhibitor, single point]",
COCc1ccc(CN2CCC(n3nccc3NC(=O)CCCc3ccccc3)CC2)o1,,inactive: 13%
CCN(C(=O)COC(=O)c1cc(=O)[nH]c2ccccc12)C1CCS(=O)(=O)C1 (centres undefined),"inconclusive: 3.29 µM [inhibitor, full curve, poor fit]",
CNc1cncc(C(=O)O)c1,,inactive: 30.1%
Cc1ccc(N2CC(O)=C(c3nc4ccccc4c(=O)[nH]3)C2=N)cc1C,,inactive: 36.9%
CSCCC(NC(=O)COc1ccccc1)C(=O)N(C)Cc1ccc(F)cc1 (centres undefined),"inconclusive: 13.1 µM [inhibitor, single point]",
O=C(COC(=O)c1n[nH]c(=O)c2ccccc12)Nc1ccccc1,,inactive: 14.7%
CC(=O)N1CCc2cc(S(=O)(=O)NC(C(=O)NC(C)c3ccccc3)C(C)C)ccc21 (centres undefined),"inconclusive: 11.7 µM [inhibitor, partial curve, poor fit]",
CN(C(=O)Cn1cnc2ccccc2c1=O)C1CCS(=O)(=O)C1 (centres undefined),,inactive: 69.2%
CCNC(=S)N1CCC(NC(=O)C2CCCCC2)CC1,"inconclusive: 18.5 µM [inhibitor, single point]",
COC(=O)/C=C1\SC(=Nc2ccc(Cl)c(Cl)c2)NC1=O,"inconclusive: 20.8 µM [inhibitor, partial curve, poor fit]",
Cc1ccc(S(=O)(=O)Cc2ccc(C(=O)N3CCN(c4ccccn4)CC3)o2)cc1,"inconclusive: 9.28 µM [inhibitor, single point]",
Cc1ccc(NS(=O)(=O)c2ccc(-c3coc(C)n3)cc2)c(Br)c1,"inconclusive: 18.5 µM [inhibitor, single point]",

# Filtered by structure: the entries above with a CF3 group
SMILES,Potency,"activity change, negative = inhibition"
O=C(OC(C(=O)NC1CCCCC1)c1ccc(C(F)(F)F)cc1)c1ccco1 (centres undefined),"inconclusive: 18.5 µM [inhibitor, single point]",
O=C(c1cccc(C(F)(F)F)c1)c1c[nH]c(C(=O)NCCCN2CCOCC2)c1,"inconclusive: 16.5 µM [inhibitor, partial curve, poor fit]",

# — PubChem BioAssay AID504834 (National Center for Advancing Translational Sciences (NCATS), 2011)
